Data as given in patent publication US9693990B2, “Use of rhodamine dyes to reduce alveolar surface tension” (THE TRUSTEES OF THE STEVENS INSTITUTE OF TECHNOLOGY, priority 2011, dated 2017).
Entries after “also recorded” stand apart in the source; their conditions may differ. For at least one compound, name, drawing or mass did not settle the structure.

How the values were obtained:
[1] = test system: flooded alveoli, global permeability edema model, isolated perfused rat lung; test: Ventilation-induced flooded alveolar clearance, global permeability edema model; conditions: fluorescein 36 μM or RWT 2 μM in the perfusate
[2] = test system: flooded alveoli of the isolated rat lung; test: Surface tension in flooded alveoli by the Laplace relation, local alveolar edema model, isolated unperfused rat lung; conditions: PALV=15 cmH2O, 5% BSA flooding, BCECF 31 μM, fluorescein 31 μM, calcein red-orange AM 19 μM, SRG 0.9 μM

Structure (SMILES): O=C1OC2(c3ccc(O)cc3Oc3cc(O)ccc32)c2ccccc21 [fluorescein, reference compound]
- flooded alveolar clearance during ventilation [1]: do not
- effect of dye on surface tension [2]: do not alter surface tension; also recorded: not to alter surface tension
- effect of dye on surface tension ([2]; listed as Fluorescein): does not alter surface tension
